Consider one substance from publication PMC11277750.

Chains of the proteins cited; added tags and fusions are not shown. Lines headed by an entry give the natural chain unless they say otherwise; changes in a name come on top.
UniProt Q80TN5: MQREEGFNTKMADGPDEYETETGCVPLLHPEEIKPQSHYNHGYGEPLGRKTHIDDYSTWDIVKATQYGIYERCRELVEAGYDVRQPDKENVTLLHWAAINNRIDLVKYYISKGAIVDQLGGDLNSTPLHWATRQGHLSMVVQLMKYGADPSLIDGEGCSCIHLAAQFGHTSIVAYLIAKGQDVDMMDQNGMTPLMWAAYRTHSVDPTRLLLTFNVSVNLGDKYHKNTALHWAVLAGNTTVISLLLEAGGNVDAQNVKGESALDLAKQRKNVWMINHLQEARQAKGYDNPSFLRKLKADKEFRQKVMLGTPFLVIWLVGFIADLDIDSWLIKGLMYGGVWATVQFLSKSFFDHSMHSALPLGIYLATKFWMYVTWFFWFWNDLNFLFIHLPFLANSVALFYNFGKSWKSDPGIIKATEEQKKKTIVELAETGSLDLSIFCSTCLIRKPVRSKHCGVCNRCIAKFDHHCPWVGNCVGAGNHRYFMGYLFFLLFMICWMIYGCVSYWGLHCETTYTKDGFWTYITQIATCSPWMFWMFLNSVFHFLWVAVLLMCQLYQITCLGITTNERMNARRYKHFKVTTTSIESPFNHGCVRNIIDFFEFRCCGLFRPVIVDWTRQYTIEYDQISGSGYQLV
UniProt O15105: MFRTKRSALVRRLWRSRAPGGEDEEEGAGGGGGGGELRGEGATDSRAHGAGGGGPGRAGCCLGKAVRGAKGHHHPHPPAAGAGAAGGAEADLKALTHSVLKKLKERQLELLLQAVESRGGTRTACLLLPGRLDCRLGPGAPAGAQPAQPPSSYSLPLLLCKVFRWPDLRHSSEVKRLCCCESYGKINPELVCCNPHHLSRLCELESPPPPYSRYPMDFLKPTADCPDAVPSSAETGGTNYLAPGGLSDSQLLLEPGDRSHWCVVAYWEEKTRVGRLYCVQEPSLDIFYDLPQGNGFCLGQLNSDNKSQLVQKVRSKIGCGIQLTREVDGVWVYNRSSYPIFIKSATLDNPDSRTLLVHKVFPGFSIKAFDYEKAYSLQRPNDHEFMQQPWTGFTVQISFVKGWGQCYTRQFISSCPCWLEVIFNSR

This assay addresses HA-zDHHA17 (catalytically inactive C467A zDHHC17 mutant) (UniProt Q80TN5). As to the kind of experiment: co-IP; HEK293T cells transfected with HA-zDHHC17 constructs and Flag-Smad7 constructs, with or without 5 ng/ml TGF-β1 for 30 min; lysis in 1% Triton X-100, 10% glycerol, 20 mM Tris-HCl pH 7.5, 150 mM NaCl; IP with an HA antibody or control IgG on Dynabeads overnight, IB with Flag or HA antibodies.

These are yes or no findings as the source states them, for the method shown. In cells and extracts the contact can be indirect. A result given as binding can be weak or reduced; the word gives no strength.

For “Flag-tagged wt Smad7 (from UniProt O15105 1-426)”, the binding entry is “binds”.
